Earlier results in patent publication US20020016293A1 (priority 2000, published 2002).

Conditions: cited from earlier work

COC(=O)C1=C(C)NC(C)=C(C(=O)OC)C1c1ccccc1[N+](=O)[O-] [Nifedipine, 3,5-Pyridinecarboxylic acid, 1,4-dihydro-2,6-dimethyl-4-(2-nitrophenyl)-, dimethyl ester]
bound to plasma protein (human, in vivo): Greater than 90%
inactive metabolites excreted in the stool (human, in vivo): 15%
inactive metabolites excreted in urine (human, in vivo): 80%
fraction of an oral dose absorbed (oral): About 90%
